From the supplement of paper PMC10973195
± gives the standard deviation of the averaged measurements. This is one part of the list. These are raw signals, not scaled to a control.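 The test system is a mixed culture of neurons, microglia and astrocytes in which bacterial LPS triggers microglia-driven neuron loss, modelling inflammatory neurodegeneration. Each compound was compared with vehicle (DMSO) wells on the same plates, and the SYK inhibitor BAY61-3606 served as the reference neuroprotective control.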

How the values were obtained:
Settings in all cases: 1 µM, treatment time 3 days
[1] = system: rat primary cerebellar neuron-glia coculture; assay: microglia count (IB4+) per image field (cells per field); higher = more microglia
[2] = system: rat primary cerebellar neuron-glia coculture; assay: live neuron count (NeuO+) per image field (cells per field); higher = more surviving neurons
[3] = system: rat primary cerebellar neuron-glia coculture; assay: median microglial FormFactor (circularity) per image (dimensionless (0-1)); higher = rounder, more ameboid microglia
[4] = system: rat primary cerebellar neuron-glia coculture; assay: necrotic cell count (DRAQ7+) per image field (cells per field); higher = more necrosis

Structure (SMILES) | microglia count ([1]; LPS 0 ng/mL) | microglia count ([1]; LPS 100 ng/mL) | live neuron count ([2]; LPS 0 ng/mL) | live neuron count ([2]; LPS 100 ng/mL) | median microglial FormFactor ([3]; LPS 0 ng/mL) | median microglial FormFactor ([3]; LPS 100 ng/mL) | necrotic cell count ([4]; LPS 0 ng/mL) | necrotic cell count ([4]; LPS 100 ng/mL)
CCCCOc1nc(N)c2c(n1)N(Cc1cccc(CN3CCCC3)c1)CC(=O)N2 | 901 ± 140 | 524 ± 230 | 1880 ± 530 | 181 ± 300 | 0.371 ± 0.043 | 0.598 ± 0.088 | – | –
CCCCN1C[C@H](O)[C@@H](O)[C@H](O)[C@H]1CO | 154 ± 77 | 435 ± 78 | 2620 ± 420 | 395 ± 490 | 0.553 ± 0.1 | 0.636 ± 0.074 | – | –
Cc1ccsc1C(=CCCN1CCC[C@@H](C(=O)O)C1)c1sccc1C | 159 ± 40 | 444 ± 100 | 2730 ± 450 | 885 ± 680 | 0.571 ± 0.09 | 0.616 ± 0.094 | 88.8 ± 30 | 720 ± 270
C#C[C@]1(O)CC[C@H]2[C@@H]3CCc4cc(O)ccc4[C@H]3CC[C@@]21C | 173 ± 45 | 416 ± 68 | 2410 ± 690 | 288 ± 380 | 0.546 ± 0.052 | 0.678 ± 0.057 | – | –
O=C(Nc1ccc2c(c1)N(S(=O)(=O)c1ccc(F)cc1)CCC2)c1c(F)cccc1Cl | 192 ± 93 | 490 ± 180 | 2690 ± 390 | 404 ± 340 | 0.535 ± 0.1 | 0.643 ± 0.1 | – | –
CN(C)c1ccc(/C=C2\C(=O)Nc3ccccc32)cc1 | 167 ± 49 | 417 ± 76 | 2680 ± 510 | 282 ± 170 | 0.56 ± 0.067 | 0.66 ± 0.055 | – | –
O=C(Nc1cc(C2CC2)[nH]n1)c1ccc(Br)cc1 | 267 ± 370 | 408 ± 81 | 2740 ± 420 | 324 ± 340 | 0.549 ± 0.082 | 0.716 ± 0.072 | – | –
CCn1c(-c2nonc2N)nc2ccccc21 | 234 ± 73 | 437 ± 96 | 2470 ± 410 | 619 ± 360 | 0.558 ± 0.062 | 0.657 ± 0.056 | – | –
NC(=O)c1ccc(-c2nc(-c3ccccn3)c(-c3ccc4c(c3)OCO4)[nH]2)cc1 | 160 ± 28 | 435 ± 60 | 2640 ± 470 | 67.3 ± 48 | 0.575 ± 0.1 | 0.581 ± 0.046 | – | –
Cc1ccc(S(N)(=O)=O)cc1 | 164 ± 48 | 438 ± 95 | 2680 ± 470 | 456 ± 530 | 0.543 ± 0.13 | 0.636 ± 0.081 | – | –
CCn1c2ccccc2c2cc(NC(=O)N3CCOCC3)ccc21 | 207 ± 38 | 389 ± 99 | 829 ± 440 | 450 ± 340 | 0.523 ± 0.056 | 0.739 ± 0.071 | – | –
CCN(CC)c1ccc(NC(=O)c2oc3ccccc3c2C)cc1 | 229 ± 180 | 404 ± 79 | 2530 ± 360 | 355 ± 490 | 0.54 ± 0.063 | 0.694 ± 0.087 | – | –
CC[C@@H]1[C@@H](C)[C@H](Nc2ccccc2)c2ccccc2N1C(=O)c1ccc(Br)cc1 | 173 ± 36 | 457 ± 92 | 2470 ± 780 | 275 ± 250 | 0.522 ± 0.081 | 0.646 ± 0.068 | – | –
COc1cc2c(cc1OCCCN1CCCC1)N=C(N)C21CCC1 | 280 ± 350 | 441 ± 110 | 2280 ± 740 | 265 ± 250 | 0.521 ± 0.077 | 0.655 ± 0.08 | – | –
O=c1ncn2nc(Sc3ccc(F)cc3F)ccc2c1-c1c(Cl)cccc1Cl | 316 ± 420 | 486 ± 84 | 2300 ± 590 | 1520 ± 840 | 0.533 ± 0.077 | 0.572 ± 0.069 | – | –
CC(C)C(NC(=O)/C(=C\c1ccccc1F)NC(=O)c1ccccc1)C(=O)O (centres undefined) | 154 ± 46 | 448 ± 100 | 2760 ± 410 | 543 ± 710 | 0.547 ± 0.11 | 0.652 ± 0.11 | – | –

Structure (SMILES) | microglia count ([1]; LPS 0 ng/mL) | microglia count ([1]; LPS 100 ng/mL) | live neuron count ([2]; LPS 0 ng/mL) | live neuron count ([2]; LPS 100 ng/mL) | median microglial FormFactor ([3]; LPS 0 ng/mL) | median microglial FormFactor ([3]; LPS 100 ng/mL) | necrotic cell count ([4]; LPS 0 ng/mL) | necrotic cell count ([4]; LPS 100 ng/mL)
COc1cc2c(N3CCN(C(=O)Nc4ccc(OC(C)C)cc4)CC3)ncnc2cc1OCCCN1CCCCC1 | 146 ± 67 | 411 ± 66 | 2770 ± 460 | 566 ± 870 | 0.51 ± 0.076 | 0.647 ± 0.076 | – | –
CC(=O)Nc1ccc(O)cc1 | 167 ± 33 | 472 ± 72 | 2700 ± 510 | 462 ± 600 | 0.549 ± 0.091 | 0.614 ± 0.11 | – | –
CCN1CCN(c2ccc(Nc3cc(N(C)C(=O)Nc4c(Cl)c(OC)cc(OC)c4Cl)ncn3)cc2)CC1 | 183 ± 96 | 429 ± 85 | 2740 ± 640 | 377 ± 420 | 0.519 ± 0.086 | 0.68 ± 0.07 | – | –
Cc1c(C(=O)NN2CCCCC2)nn(-c2ccc(Cl)cc2Cl)c1-c1ccc(I)cc1 | 157 ± 26 | 461 ± 120 | 2660 ± 550 | 388 ± 390 | 0.55 ± 0.064 | 0.635 ± 0.06 | – | –
Cc1cc(O)c(-c2ccc([C@@H](C)CN(C)C)cc2)c2c1[nH]c(=O)c1sccc12 | 53.8 ± 60 | 31 ± 13 | 2280 ± 240 | 2290 ± 330 | 0.484 ± 0.092 | 0.426 ± 0.083 | – | –
Cc1nc(C#Cc2cccnc2)cs1 | 153 ± 32 | 418 ± 100 | 2680 ± 440 | 589 ± 850 | 0.552 ± 0.064 | 0.656 ± 0.091 | – | –
COc1ccc(NC(=O)c2ccc(-c3ccc(-c4nnc(C)o4)cc3C)cc2)cc1N1CCN(C)CC1 | 308 ± 130 | 482 ± 150 | 2450 ± 380 | 776 ± 700 | 0.463 ± 0.075 | 0.636 ± 0.12 | – | –
Cc1cc(NC(=O)NCCN2CCC(O)(Cc3ccccc3)CC2)c2ccccc2n1 | 156 ± 32 | 438 ± 100 | 2620 ± 540 | 280 ± 310 | 0.557 ± 0.095 | 0.66 ± 0.061 | – | –
O=C(Nc1cccnc1)c1ccc(Cl)cc1 | 205 ± 140 | 474 ± 160 | 2690 ± 400 | 383 ± 610 | 0.538 ± 0.092 | 0.653 ± 0.089 | – | –
COc1cc(OC2CCN(C)CC2)ccc1Nc1ncc2c(n1)n(C1CCCC1)c(=O)n2C | 121 ± 14 | 407 ± 36 | 2720 ± 320 | 76.7 ± 40 | 0.652 ± 0.13 | 0.686 ± 0.023 | – | –
c1ccc(-c2ccc(CSc3nnc(-c4ccc5c(c4)OCO5)o3)cc2)cc1 | 181 ± 72 | 454 ± 94 | 2610 ± 510 | 275 ± 130 | 0.535 ± 0.1 | 0.657 ± 0.059 | – | –
COc1ccc2[nH]cc(CCNC(C)=O)c2c1 | 228 ± 150 | 436 ± 74 | 2480 ± 410 | 330 ± 220 | 0.567 ± 0.067 | 0.643 ± 0.1 | – | –
CC(C)(C#N)c1cc(Cn2cncn2)cc(C(C)(C)C#N)c1 | 119 ± 11 | 590 ± 79 | 2530 ± 780 | 2680 ± 550 | 0.758 ± 0.076 | 0.496 ± 0.051 | – | –
O=C(CSc1nc2ccc(N3C(=O)c4ccccc4C3=O)cc2s1)Nc1cccc(Cl)c1 | 152 ± 38 | 411 ± 78 | 2660 ± 400 | 238 ± 180 | 0.532 ± 0.083 | 0.674 ± 0.061 | – | –
CCOC(=O)c1c(NC(=O)Cc2ccccc2)sc2c1CCN(C(=O)OCC)C2 | 161 ± 34 | 404 ± 57 | 2680 ± 410 | 157 ± 140 | 0.529 ± 0.067 | 0.726 ± 0.081 | – | –
Cc1[nH]n(-c2ccccc2)c(=O)c1C1(C(F)(F)F)C(=O)N(c2cccc(Cl)c2)C2=C1C(=O)CC(C)(C)C2 (centres undefined) | 185 ± 93 | 436 ± 96 | 2540 ± 490 | 353 ± 520 | 0.528 ± 0.11 | 0.68 ± 0.069 | – | –

2 of the compounds above, in CSV form.
Structure (SMILES),microglia count ([1]; LPS 0 ng/mL),microglia count ([1]; LPS 100 ng/mL),live neuron count ([2]; LPS 0 ng/mL),live neuron count ([2]; LPS 100 ng/mL),median microglial FormFactor ([3]; LPS 0 ng/mL),median microglial FormFactor ([3]; LPS 100 ng/mL),necrotic cell count ([4]; LPS 0 ng/mL),necrotic cell count ([4]; LPS 100 ng/mL)
O=C(Nc1ccc2c(c1)N(S(=O)(=O)c1ccc(F)cc1)CCC2)c1c(F)cccc1Cl,192 ± 93,490 ± 180,2690 ± 390,404 ± 340,0.535 ± 0.1,0.643 ± 0.1,–,–
CN(C)c1ccc(/C=C2\C(=O)Nc3ccccc32)cc1,167 ± 49,417 ± 76,2680 ± 510,282 ± 170,0.56 ± 0.067,0.66 ± 0.055,–,–
